Data from the supplement of paper PMC10849652.
The other results are listed elsewhere or left out.

Amino acid sequences for entries named in this document (tags omitted). A change or cut given only in a name is not applied to a line headed by its entry.
UniProt Q658Y4: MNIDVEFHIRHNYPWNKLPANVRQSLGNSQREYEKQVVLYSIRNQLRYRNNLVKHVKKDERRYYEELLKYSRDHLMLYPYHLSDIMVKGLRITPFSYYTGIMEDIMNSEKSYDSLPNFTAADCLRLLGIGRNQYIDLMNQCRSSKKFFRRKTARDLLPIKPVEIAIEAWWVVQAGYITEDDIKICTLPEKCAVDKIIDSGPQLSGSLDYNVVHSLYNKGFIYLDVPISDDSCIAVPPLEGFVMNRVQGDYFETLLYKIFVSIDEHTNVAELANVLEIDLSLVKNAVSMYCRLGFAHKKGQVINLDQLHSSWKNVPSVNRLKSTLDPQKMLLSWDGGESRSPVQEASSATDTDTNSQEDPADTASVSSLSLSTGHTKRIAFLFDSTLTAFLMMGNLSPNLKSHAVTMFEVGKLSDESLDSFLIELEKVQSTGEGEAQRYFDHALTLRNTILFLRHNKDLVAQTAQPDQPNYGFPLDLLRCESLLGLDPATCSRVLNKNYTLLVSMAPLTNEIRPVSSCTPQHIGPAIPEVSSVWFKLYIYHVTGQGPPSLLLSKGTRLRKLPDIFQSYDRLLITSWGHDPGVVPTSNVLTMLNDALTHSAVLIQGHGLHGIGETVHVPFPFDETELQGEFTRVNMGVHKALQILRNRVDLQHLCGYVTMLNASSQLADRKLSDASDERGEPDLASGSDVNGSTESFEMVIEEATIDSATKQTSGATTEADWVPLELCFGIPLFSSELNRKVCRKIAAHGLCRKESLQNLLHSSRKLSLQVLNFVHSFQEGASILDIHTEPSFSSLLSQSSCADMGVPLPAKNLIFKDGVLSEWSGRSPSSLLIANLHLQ
UniProt Q8N3X1: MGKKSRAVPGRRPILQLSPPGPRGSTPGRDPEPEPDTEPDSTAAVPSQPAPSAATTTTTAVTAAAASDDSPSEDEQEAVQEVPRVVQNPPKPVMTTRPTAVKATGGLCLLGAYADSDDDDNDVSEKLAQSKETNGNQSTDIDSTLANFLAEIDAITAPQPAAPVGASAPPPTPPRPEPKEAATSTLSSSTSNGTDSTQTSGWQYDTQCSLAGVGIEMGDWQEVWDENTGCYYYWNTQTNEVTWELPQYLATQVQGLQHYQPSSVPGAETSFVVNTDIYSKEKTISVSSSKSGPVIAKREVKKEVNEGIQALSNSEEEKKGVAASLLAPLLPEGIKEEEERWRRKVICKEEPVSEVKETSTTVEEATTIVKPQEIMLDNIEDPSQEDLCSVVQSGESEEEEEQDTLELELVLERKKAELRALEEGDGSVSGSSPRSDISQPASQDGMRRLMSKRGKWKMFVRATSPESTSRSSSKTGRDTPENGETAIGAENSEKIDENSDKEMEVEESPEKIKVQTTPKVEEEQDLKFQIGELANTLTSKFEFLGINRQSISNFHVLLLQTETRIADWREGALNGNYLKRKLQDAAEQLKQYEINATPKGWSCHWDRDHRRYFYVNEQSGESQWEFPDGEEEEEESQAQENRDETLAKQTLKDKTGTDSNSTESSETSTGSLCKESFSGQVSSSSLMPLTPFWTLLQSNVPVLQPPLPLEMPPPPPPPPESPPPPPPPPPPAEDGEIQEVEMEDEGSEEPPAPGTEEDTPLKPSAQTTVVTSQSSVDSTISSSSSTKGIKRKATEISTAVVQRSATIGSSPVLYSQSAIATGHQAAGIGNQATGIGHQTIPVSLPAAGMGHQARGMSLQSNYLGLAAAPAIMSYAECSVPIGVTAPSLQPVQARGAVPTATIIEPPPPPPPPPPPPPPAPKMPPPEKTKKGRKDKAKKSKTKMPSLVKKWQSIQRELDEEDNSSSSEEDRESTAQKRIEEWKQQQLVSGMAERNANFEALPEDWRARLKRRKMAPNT
UniProt Q9NSD9: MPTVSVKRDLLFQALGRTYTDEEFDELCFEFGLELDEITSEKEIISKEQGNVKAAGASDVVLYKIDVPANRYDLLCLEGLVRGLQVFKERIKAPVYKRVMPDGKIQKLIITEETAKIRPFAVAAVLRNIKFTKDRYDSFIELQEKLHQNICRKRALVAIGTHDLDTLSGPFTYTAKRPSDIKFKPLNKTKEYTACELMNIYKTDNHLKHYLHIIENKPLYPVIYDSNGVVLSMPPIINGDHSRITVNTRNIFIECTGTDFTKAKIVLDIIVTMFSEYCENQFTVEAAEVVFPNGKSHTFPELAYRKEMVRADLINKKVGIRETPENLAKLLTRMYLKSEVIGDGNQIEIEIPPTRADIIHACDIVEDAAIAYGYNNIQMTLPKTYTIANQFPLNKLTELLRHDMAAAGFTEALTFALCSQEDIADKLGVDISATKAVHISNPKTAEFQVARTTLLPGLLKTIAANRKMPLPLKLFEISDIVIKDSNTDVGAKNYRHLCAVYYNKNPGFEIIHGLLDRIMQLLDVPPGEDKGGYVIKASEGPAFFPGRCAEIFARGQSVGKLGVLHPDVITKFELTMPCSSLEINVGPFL
UniProt Q14254: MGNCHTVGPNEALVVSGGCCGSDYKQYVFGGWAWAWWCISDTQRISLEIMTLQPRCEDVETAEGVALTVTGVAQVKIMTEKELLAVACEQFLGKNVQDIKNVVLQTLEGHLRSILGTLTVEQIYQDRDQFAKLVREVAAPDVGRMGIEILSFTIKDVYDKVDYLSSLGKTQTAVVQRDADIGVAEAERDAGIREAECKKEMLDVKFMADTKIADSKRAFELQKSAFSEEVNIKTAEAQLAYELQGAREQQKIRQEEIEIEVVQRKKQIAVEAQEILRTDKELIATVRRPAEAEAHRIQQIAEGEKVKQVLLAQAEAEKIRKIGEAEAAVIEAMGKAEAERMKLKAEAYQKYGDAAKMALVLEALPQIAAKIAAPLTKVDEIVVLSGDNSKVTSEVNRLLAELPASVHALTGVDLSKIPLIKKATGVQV
UniProt Q02790: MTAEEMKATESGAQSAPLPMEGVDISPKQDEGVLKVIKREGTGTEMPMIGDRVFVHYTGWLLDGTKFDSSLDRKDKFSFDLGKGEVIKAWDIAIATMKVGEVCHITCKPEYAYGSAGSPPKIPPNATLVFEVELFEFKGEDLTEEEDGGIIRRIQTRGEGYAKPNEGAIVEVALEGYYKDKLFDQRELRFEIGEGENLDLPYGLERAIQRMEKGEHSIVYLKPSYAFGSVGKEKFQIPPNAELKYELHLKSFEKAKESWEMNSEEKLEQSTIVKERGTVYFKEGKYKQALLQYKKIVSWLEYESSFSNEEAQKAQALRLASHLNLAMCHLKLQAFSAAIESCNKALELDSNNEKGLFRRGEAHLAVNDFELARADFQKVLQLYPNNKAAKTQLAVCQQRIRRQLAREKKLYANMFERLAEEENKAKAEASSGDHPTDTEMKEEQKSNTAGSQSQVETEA
UniProt Q9UKT4: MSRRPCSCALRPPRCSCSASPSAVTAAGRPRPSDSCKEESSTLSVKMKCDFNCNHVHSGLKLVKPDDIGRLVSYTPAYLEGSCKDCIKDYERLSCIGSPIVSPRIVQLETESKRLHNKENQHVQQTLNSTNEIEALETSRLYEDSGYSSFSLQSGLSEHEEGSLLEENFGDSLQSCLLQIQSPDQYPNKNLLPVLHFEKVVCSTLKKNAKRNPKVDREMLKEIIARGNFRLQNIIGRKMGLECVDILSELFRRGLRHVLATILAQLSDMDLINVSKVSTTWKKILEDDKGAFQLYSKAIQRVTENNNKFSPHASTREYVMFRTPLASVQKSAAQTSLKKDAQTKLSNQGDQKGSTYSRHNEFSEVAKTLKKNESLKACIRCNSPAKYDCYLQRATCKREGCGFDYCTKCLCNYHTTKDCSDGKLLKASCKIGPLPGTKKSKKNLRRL
UniProt Q96NB1: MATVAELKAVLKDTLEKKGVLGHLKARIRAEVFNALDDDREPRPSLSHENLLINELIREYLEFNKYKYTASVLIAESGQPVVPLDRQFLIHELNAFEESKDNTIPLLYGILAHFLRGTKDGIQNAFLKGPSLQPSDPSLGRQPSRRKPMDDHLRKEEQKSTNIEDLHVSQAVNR
UniProt Q9UK97: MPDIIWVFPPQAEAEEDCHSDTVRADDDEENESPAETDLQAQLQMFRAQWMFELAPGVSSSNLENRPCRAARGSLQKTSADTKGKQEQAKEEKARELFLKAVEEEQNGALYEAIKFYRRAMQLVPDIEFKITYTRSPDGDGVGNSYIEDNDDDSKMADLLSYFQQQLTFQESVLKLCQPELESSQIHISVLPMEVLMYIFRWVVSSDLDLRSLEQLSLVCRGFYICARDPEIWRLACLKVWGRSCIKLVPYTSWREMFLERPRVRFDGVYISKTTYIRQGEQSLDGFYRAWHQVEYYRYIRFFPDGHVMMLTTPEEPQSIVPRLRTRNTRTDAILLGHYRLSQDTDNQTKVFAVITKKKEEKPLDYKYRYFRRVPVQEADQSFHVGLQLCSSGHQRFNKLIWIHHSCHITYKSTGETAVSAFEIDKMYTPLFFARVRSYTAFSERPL
UniProt Q9UIM3: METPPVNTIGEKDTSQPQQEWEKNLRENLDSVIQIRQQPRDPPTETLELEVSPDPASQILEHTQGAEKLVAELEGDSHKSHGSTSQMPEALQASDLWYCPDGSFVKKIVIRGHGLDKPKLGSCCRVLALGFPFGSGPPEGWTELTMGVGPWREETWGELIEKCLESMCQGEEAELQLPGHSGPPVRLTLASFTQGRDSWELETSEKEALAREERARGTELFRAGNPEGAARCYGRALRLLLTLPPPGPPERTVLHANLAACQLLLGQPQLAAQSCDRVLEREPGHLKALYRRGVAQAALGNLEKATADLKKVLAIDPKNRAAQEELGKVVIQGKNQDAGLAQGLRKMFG
UniProt Q96GI7: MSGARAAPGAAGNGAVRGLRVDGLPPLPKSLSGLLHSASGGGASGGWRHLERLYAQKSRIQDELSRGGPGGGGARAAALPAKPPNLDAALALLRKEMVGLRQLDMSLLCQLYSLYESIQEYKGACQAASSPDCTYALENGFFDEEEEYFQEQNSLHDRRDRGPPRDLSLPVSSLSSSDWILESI
UniProt P37268: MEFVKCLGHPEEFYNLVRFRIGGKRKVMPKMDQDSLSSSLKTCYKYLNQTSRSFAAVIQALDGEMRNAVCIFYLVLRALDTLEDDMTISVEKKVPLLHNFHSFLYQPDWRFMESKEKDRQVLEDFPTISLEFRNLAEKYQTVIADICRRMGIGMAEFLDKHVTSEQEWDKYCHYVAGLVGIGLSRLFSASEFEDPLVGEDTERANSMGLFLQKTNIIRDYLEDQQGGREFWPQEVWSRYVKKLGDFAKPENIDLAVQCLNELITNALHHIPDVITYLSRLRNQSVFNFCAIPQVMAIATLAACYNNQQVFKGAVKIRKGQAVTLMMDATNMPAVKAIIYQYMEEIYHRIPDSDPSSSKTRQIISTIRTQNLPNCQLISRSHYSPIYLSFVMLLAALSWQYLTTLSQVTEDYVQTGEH
UniProt Q9H479: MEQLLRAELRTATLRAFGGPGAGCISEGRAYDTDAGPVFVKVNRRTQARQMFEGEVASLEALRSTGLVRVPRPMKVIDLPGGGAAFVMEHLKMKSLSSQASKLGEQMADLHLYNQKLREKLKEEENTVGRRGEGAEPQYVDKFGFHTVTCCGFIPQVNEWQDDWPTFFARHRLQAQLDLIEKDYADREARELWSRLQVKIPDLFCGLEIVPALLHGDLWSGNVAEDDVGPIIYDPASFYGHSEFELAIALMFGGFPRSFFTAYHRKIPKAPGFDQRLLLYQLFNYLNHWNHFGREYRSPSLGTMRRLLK
UniProt Q9Y680: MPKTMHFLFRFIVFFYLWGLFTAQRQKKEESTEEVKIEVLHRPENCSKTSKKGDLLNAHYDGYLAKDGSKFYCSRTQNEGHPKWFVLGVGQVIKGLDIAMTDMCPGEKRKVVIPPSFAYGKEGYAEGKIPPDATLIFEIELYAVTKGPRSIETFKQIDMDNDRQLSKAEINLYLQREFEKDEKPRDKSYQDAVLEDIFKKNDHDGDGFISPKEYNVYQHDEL
UniProt Q96ME1: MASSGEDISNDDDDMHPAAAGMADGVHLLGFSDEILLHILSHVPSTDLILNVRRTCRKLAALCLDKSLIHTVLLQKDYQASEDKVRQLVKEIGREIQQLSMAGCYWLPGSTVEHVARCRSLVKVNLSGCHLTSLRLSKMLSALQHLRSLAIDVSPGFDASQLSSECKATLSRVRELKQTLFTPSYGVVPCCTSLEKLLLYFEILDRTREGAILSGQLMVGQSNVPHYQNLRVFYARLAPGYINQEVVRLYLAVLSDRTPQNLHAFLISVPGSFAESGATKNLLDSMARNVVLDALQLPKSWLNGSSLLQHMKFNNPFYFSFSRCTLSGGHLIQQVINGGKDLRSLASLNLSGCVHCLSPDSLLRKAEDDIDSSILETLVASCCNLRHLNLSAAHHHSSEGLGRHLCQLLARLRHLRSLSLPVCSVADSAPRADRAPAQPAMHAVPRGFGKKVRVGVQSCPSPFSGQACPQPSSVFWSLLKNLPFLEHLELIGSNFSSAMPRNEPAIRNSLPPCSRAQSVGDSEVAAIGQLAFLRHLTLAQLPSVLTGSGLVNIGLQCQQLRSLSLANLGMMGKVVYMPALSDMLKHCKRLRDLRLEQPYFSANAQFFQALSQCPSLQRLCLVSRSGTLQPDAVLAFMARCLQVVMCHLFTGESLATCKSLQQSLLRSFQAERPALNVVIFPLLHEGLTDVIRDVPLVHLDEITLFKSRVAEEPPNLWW

How the values were obtained:
Assay in all cases: log2 fold change, soluble protein after heating vs DMSO (PISA); higher = thermal stabilisation; K562 lysate, 10 uM; active = over 0.2 and 3.5 SD of the protein, either way, in both replicates (recomputed)
vemurafenib = compound: CCCS(=O)(=O)Nc1ccc(F)c(C(=O)c2c[nH]c3ncc(-c4ccc(Cl)cc4)cc23)c1F [vemurafenib]
In short: (§1)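 Values give the log-two fold change in thermal stability against solvent controls, from duplicates. Crude K562 extract at 1 mg/mL protein, made by dounce homogenisation in PBS pH 7.4 with 1 mM MgCl2, was treated with 10 μM compound for 30 min. After 3 min heating across 48°C-58°C, aliquots were pooled, adjusted to 0.5% NP-40 at 4°C and centrifuged at 21,000xg for 90 min. The supernatant was measured by TMTpro 16plex LC-MS/MS with channel sums equalised.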

[1] = compound: CCCS(=O)(=O)Nc1ccc(F)c(C(=O)c2c[nH]c3ncc(Cl)cc23)c1F
In short: as §1

barasertib = compound: CCN(CCCOc1ccc2c(Nc3cc(CC(=O)Nc4cccc(F)c4)[nH]n3)ncnc2c1)CCOP(=O)(O)O [barasertib]
In short: as §1

[2] = compound: CC[C@@H]1C(=O)N(C)c2cnc(Nc3ccc(C(=O)NC4CCN(C)CC4)cc3OC)nc2N1C1CCCC1
In short: as §1

volasertib = compound: CC[C@@H]1C(=O)N(C)c2cnc(Nc3ccc(C(=O)N[C@H]4CC[C@H](N5CCN(CC6CC6)CC5)CC4)cc3OC)nc2N1C(C)C [volasertib]
In short: as §1

[3] = compound: CCn1c(C(=O)N(C2CC2)C2CC2)cc2c3c(ncn3C)c(Nc3cc(C)n(C)n3)nc21
In short: as §1

[4] = compound: CCn1cc(-c2ccnc3[nH]c(-c4cccc(CN(C)C)c4)cc23)c(-c2ccc(NC(=O)N(C)C)cc2)n1
In short: as §1

[5] = compound: CN1CCC(CNc2ccc3ncc(-c4cccc(OC(F)(F)F)c4)n3n2)CC1
In short: as §1

saracatinib = compound: CN1CCN(CCOc2cc(OC3CCOCC3)c3c(Nc4c(Cl)ccc5c4OCO5)ncnc3c2)CC1 [saracatinib]
In short: as §1

sotrastaurin = compound: CN1CCN(c2nc(C3=C(c4c[nH]c5ccccc45)C(=O)NC3=O)c3ccccc3n2)CC1 [sotrastaurin]
In short: as §1

alvocidib = compound: CN1CC[C@H](c2c(O)cc(O)c3c(=O)cc(-c4ccccc4Cl)oc23)[C@H](O)C1 [alvocidib]
In short: as §1

Tubastatin A = compound: CN1CCc2c(c3ccccc3n2Cc2ccc(C(=O)NO)cc2)C1 [Tubastatin A]
In short: as §1

[6] = compound: CNC(=O)C1=CC=CC=C1NC2=NC(=NC=C2Cl)NC3=C(C=C(C=C3)N4CCOCC4)OC
In short: as §1

defactinib = compound: CNC(=O)c1ccc(Nc2ncc(C(F)(F)F)c(NCc3nccnc3N(C)S(C)(=O)=O)n2)cc1 [defactinib]
In short: as §1

[7] = compound: CNc1nc(-c2ccc3c(N)n[nH]c3c2)cc(N2C[C@@H](C(=O)NC3CCCCC3)CC[C@H]2C)n1
In short: as §1

encorafenib = compound: COC(=O)N[C@@H](C)CNc1nccc(-c2cn(C(C)C)nc2-c2cc(Cl)cc(NS(C)(=O)=O)c2F)n1 [encorafenib]
In short: as §1

[8] = compound: COC(=O)[C@H](CCSC)NC(=O)C1=C(C=C(C=C1)NC[C@H](CS)N)C2=CC=CC=C2
In short: as §1

alisertib = compound: COc1cc(Nc2ncc3c(n2)-c2ccc(Cl)cc2C(c2c(F)cccc2OC)=NC3)ccc1C(=O)O [alisertib]
In short: as §1

[9] = compound: COc1cc2nc(-c3cc(F)ccc3O)nc(N[C@@H]3CNC[C@H]3C(C)(C)O)c2cc1OC
In short: as §1

gefitinib = compound: COc1cc2ncnc(Nc3ccc(F)c(Cl)c3)c2cc1OCCCN1CCOCC1 [gefitinib]
In short: as §1

Target | log2 fold change (vemurafenib) | log2 fold change [1] | log2 fold change (barasertib) | log2 fold change [2] | log2 fold change (volasertib) | log2 fold change [3] | log2 fold change [4] | log2 fold change [5] | log2 fold change (saracatinib) | log2 fold change (sotrastaurin) | log2 fold change (alvocidib) | log2 fold change (Tubastatin A) | log2 fold change [6] | log2 fold change (defactinib) | log2 fold change [7] | log2 fold change (encorafenib) | log2 fold change [8] | log2 fold change (alisertib) | log2 fold change [9] | log2 fold change (gefitinib)
FAM91A1 (UniProt Q658Y4) | inactive: -0.005 | inactive: 0.031 | inactive: -0.042 | inactive: -0.006 | inactive: -0.023 | inactive: -0.064 | inactive: 0.047 | inactive: -0.035 | inactive: 0.008 | inactive: 0.053 | inactive: 0.026 | inactive: 0.002 | inactive: -0.009 | inactive: 0.022 | inactive: 0.035 | inactive: -0.017 | inactive: -0.026 | inactive: 0.012 | inactive: 0 | inactive: 0.008
FNBP4 isoform 2 (UniProt Q8N3X1) | inactive: 0.006 | inactive: 0.003 | inactive: -0.045 | inactive: 0.026 | inactive: 0.015 | inactive: 0 | inactive: -0.004 | inactive: 0.013 | inactive: -0.021 | inactive: -0.019 | inactive: -0.032 | inactive: 0.006 | inactive: -0.019 | inactive: 0.001 | inactive: -0.025 | inactive: 0.048 | inactive: -0.082 | inactive: 0.014 | inactive: 0.017 | inactive: 0.038
FARSB (UniProt Q9NSD9) | inactive: -0.009 | inactive: 0.006 | inactive: 0.018 | inactive: 0.003 | inactive: -0.024 | inactive: 0.016 | inactive: 0 | inactive: -0.018 | inactive: 0.022 | inactive: 0.095 | inactive: 0.003 | inactive: -0.056 | inactive: -0.012 | inactive: -0.014 | inactive: -0.012 | inactive: -0.029 | inactive: 0.067 | inactive: 0.002 | inactive: 0.005 | inactive: -0.013
FLOT2 (UniProt Q14254) | inactive: 0.006 | inactive: -0.018 | inactive: 0.032 | inactive: -0.001 | inactive: -0.005 | inactive: 0.01 | inactive: -0.026 | inactive: 0.018 | inactive: 0.001 | inactive: -0.009 | inactive: -0.004 | inactive: 0.106 | inactive: -0.007 | inactive: -0.013 | inactive: -0.022 | inactive: -0.01 | inactive: -0.032 | inactive: -0.016 | inactive: 0.024 | inactive: 0.031
FKBP4 (UniProt Q02790) | inactive: -0.014 | inactive: -0.004 | inactive: -0.037 | inactive: -0.015 | inactive: -0.005 | inactive: -0.004 | inactive: -0.012 | inactive: 0.014 | inactive: -0.002 | inactive: 0.014 | inactive: 0.017 | inactive: 0.01 | inactive: -0.033 | inactive: -0.013 | inactive: -0.011 | inactive: -0.021 | inactive: 0.011 | inactive: -0.005 | inactive: 0.002 | inactive: -0.007
FBXO5 (UniProt Q9UKT4) | inactive: 0.045 | inactive: 0.069 | inactive: -0.039 | inactive: 0.067 | inactive: -0.053 | inactive: 0.066 | inactive: 0.015 | inactive: -0.147 | inactive: 0.035 | inactive: -0.009 | inactive: -0.031 | inactive: -0.092 | inactive: -0.099 | inactive: -0.012 | inactive: 0.051 | inactive: 0.057 | inactive: -0.032 | inactive: -0.024 | inactive: -0.008 | inactive: 0.011
FOPNL (UniProt Q96NB1) | inactive: 0.034 | inactive: 0.113 | inactive: 0.12 | inactive: 0.117 | inactive: -0.02 | inactive: -0.065 | inactive: -0.082 | inactive: 0.024 | inactive: 0.081 | inactive: 0.01 | inactive: -0.012 | inactive: 0.073 |  | inactive: -0.081 | inactive: -0.068 | inactive: 0.057 | inactive: 0.013 | inactive: -0.011 | inactive: -0.046 | inactive: -0.112
FBXO9 (UniProt Q9UK97) | inactive: -0.025 | inactive: 0.007 | inactive: 0.116 | inactive: 0.135 | inactive: -0.012 | inactive: -0.015 | inactive: 0.049 | inactive: -0.083 | inactive: -0.013 | inactive: 0.021 | inactive: 0.099 | inactive: -0.006 | inactive: -0.015 | inactive: 0.104 | inactive: 0.037 | inactive: 0.078 | inactive: -0.042 | inactive: -0.011 | active: -0.402 | inactive: 0.04
FKBPL (UniProt Q9UIM3) | inactive: 0.01 | inactive: 0.035 | inactive: 0.01 | inactive: 0.017 | inactive: -0.04 | inactive: 0.031 | inactive: 0.044 | inactive: -0.016 | inactive: 0.012 | inactive: 0.049 | inactive: -0.013 | inactive: -0.022 | inactive: 0.011 | inactive: 0 | inactive: -0.011 | inactive: -0.004 | inactive: 0.016 | inactive: 0.026 | inactive: -0.021 | inactive: -0.024
FAM89A (UniProt Q96GI7) | inactive: 0.104 | inactive: 0.067 | inactive: 0.308 | inactive: -0.03 | inactive: 0.046 | inactive: 0.043 | inactive: 0.021 | inactive: 0.057 | inactive: 0.036 | inactive: 0.011 | inactive: -0.038 | inactive: -0.019 | inactive: -0.013 | inactive: -0.009 | inactive: 0.039 | inactive: 0.059 | inactive: -0.283 | inactive: 0.032 | inactive: 0.058 | inactive: -0.024
FDFT1 (UniProt P37268) | inactive: -0.012 | inactive: 0.111 | inactive: 0.023 | inactive: 0.005 | inactive: -0.069 | inactive: 0.01 | inactive: -0.047 | inactive: -0.022 | inactive: -0.019 | active: 0.437 | inactive: 0.002 | inactive: -0.037 | inactive: -0.033 | inactive: -0.048 | inactive: -0.018 | inactive: 0.047 | inactive: -0.155 | inactive: 0.068 | inactive: 0.018 | inactive: 0.016
FN3K (UniProt Q9H479) | inactive: 0.06 | inactive: -0.015 | inactive: -0.019 | inactive: 0.022 | inactive: 0.011 | inactive: 0.006 | inactive: 0.089 | inactive: -0.062 | inactive: -0.004 | inactive: 0.043 | inactive: 0.036 | inactive: 0.015 | inactive: -0.005 | inactive: -0.009 | inactive: 0.022 | inactive: -0.006 | inactive: -0.035 | inactive: -0.02 | inactive: 0.002 | inactive: 0.007
FKBP7 (UniProt Q9Y680) | inactive: -0.005 | inactive: 0.004 | inactive: 0.045 | inactive: 0.019 | inactive: 0.025 | inactive: 0 | inactive: 0.064 | inactive: -0.041 | inactive: -0.022 | inactive: 0.015 | inactive: 0.083 | inactive: 0.091 | inactive: 0.023 | inactive: 0.022 | inactive: 0.062 | inactive: -0.007 | inactive: -0.166 | inactive: -0.034 | inactive: -0.002 | inactive: -0.024
FBXL18 isoform 4 (UniProt Q96ME1) | inactive: 0.012 | inactive: 0.017 | inactive: 0.031 | inactive: -0.013 | inactive: -0.011 | inactive: -0.012 | inactive: -0.072 | inactive: 0.033 | inactive: -0.006 | inactive: -0.014 | inactive: 0.007 | inactive: 0.02 | inactive: 0.02 | inactive: 0.008 | inactive: -0.024 | inactive: -0.005 | inactive: -0.049 | inactive: -0.001 | inactive: 0 | inactive: 0.024
FIGNL1 (UniProt Q6PIW4) | inactive: -0.012 | inactive: 0.042 | inactive: 0.03 | inactive: -0.063 | inactive: -0.047 | inactive: 0.027 | inactive: -0.108 | inactive: 0.036 | inactive: 0.006 | inactive: -0.015 | inactive: -0.018 | inactive: -0.189 | inactive: 0.014 | inactive: 0.05 | inactive: -0.018 | inactive: 0.041 | inactive: 0.069 | inactive: -0.003 | inactive: 0.005 | inactive: 0.01
FASTKD2 (UniProt Q9NYY8) | inactive: -0.014 | inactive: -0.002 | inactive: 0.037 | inactive: 0.004 | inactive: -0.036 | inactive: 0.011 | inactive: -0.072 | inactive: 0.03 | inactive: 0.012 | inactive: 0.014 | inactive: 0.014 | inactive: -0.065 | inactive: 0.016 | inactive: 0.056 | inactive: 0.036 | inactive: -0.016 | inactive: -0.004 | inactive: 0.021 | inactive: -0.033 | inactive: 0.021

As a working copy, some entries already given.
Target | log2 fold change (vemurafenib) | log2 fold change [1] | log2 fold change (barasertib) | log2 fold change [2] | log2 fold change (volasertib) | log2 fold change [3] | log2 fold change [4] | log2 fold change [5] | log2 fold change (saracatinib) | log2 fold change (sotrastaurin) | log2 fold change (alvocidib) | log2 fold change (Tubastatin A) | log2 fold change [6] | log2 fold change (defactinib) | log2 fold change [7] | log2 fold change (encorafenib) | log2 fold change [8] | log2 fold change (alisertib) | log2 fold change [9] | log2 fold change (gefitinib)
FKBP7 (UniProt Q9Y680) | inactive: -0.005 | inactive: 0.004 | inactive: 0.045 | inactive: 0.019 | inactive: 0.025 | inactive: 0 | inactive: 0.064 | inactive: -0.041 | inactive: -0.022 | inactive: 0.015 | inactive: 0.083 | inactive: 0.091 | inactive: 0.023 | inactive: 0.022 | inactive: 0.062 | inactive: -0.007 | inactive: -0.166 | inactive: -0.034 | inactive: -0.002 | inactive: -0.024
FBXL18 isoform 4 (UniProt Q96ME1) | inactive: 0.012 | inactive: 0.017 | inactive: 0.031 | inactive: -0.013 | inactive: -0.011 | inactive: -0.012 | inactive: -0.072 | inactive: 0.033 | inactive: -0.006 | inactive: -0.014 | inactive: 0.007 | inactive: 0.02 | inactive: 0.02 | inactive: 0.008 | inactive: -0.024 | inactive: -0.005 | inactive: -0.049 | inactive: -0.001 | inactive: 0 | inactive: 0.024
